Sequences of proteins named here, by UniProt entry; tags and fusion partners are left off. Residues count along the entry.
UniProt Q91VN0, residues 31-1614: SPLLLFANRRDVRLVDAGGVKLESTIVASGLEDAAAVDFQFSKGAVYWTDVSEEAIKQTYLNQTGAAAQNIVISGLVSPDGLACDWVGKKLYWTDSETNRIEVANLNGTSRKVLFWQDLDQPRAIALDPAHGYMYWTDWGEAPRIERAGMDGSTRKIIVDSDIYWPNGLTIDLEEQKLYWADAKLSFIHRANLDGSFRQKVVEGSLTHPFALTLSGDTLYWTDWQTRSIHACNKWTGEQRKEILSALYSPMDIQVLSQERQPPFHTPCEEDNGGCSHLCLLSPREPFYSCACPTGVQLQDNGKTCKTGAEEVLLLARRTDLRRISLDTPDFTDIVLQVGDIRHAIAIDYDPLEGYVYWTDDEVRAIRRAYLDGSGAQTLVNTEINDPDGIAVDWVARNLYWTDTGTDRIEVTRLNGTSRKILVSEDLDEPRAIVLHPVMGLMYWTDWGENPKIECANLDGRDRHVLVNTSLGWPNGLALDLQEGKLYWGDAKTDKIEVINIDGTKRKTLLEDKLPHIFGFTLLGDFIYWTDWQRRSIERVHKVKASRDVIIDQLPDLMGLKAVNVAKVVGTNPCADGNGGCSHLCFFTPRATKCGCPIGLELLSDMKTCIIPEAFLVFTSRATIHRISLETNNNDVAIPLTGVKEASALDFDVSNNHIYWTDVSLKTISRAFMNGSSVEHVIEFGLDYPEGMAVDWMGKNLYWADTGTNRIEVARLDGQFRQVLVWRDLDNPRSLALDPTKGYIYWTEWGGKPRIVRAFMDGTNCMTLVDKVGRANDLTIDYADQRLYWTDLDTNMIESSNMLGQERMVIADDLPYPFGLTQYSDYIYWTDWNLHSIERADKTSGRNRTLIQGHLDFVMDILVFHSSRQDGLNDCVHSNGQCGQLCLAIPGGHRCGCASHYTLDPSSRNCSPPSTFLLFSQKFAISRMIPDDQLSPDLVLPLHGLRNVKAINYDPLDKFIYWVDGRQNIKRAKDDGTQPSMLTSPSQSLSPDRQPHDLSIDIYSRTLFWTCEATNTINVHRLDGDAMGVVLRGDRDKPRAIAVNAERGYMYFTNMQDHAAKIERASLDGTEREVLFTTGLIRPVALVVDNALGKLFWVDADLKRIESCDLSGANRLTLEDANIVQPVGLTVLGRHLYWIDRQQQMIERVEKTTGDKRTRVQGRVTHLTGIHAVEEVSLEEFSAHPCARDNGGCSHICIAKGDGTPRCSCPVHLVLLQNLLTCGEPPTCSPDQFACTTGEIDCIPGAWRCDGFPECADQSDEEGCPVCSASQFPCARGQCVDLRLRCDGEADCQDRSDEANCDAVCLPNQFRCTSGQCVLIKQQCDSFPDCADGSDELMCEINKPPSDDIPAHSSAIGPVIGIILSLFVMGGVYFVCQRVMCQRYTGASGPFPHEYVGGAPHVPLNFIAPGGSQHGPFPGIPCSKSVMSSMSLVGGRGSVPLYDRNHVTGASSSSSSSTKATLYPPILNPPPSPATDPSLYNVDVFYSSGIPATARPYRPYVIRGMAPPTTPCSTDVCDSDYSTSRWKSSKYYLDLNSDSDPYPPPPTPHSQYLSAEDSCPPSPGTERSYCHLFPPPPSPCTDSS

In PMC12598007:

T1: recombinant human AOC1 protein (diamine oxidase, DAO) (human) (UniProt P19801)
T1 sequence: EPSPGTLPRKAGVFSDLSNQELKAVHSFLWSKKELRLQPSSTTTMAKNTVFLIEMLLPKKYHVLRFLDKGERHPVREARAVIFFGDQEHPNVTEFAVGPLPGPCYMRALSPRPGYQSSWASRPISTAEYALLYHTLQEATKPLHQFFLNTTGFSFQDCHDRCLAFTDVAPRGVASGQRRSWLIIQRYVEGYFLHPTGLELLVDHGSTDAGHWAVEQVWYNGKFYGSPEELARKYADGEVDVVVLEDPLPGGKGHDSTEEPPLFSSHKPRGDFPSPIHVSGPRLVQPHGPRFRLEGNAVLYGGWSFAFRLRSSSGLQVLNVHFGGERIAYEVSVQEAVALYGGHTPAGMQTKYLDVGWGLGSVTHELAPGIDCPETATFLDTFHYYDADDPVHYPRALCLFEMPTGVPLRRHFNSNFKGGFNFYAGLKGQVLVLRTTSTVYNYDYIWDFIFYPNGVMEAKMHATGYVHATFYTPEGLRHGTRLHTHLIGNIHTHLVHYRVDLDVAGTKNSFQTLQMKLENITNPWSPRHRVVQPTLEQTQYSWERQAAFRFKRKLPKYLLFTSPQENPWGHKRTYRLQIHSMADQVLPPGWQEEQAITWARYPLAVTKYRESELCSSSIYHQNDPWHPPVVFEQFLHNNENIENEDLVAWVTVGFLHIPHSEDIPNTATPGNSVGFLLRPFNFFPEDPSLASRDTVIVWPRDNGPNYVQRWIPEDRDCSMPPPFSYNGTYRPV


Legend:
[1] = target: T1, recombinant human AOC1 protein (diamine oxidase, DAO) (human); assay: affinity purification with mass spectrometry; C2C12 myoblasts treated with 200 pg/mL recombinant human AOC1 for 24 h, lysed in RIPA buffer with protease inhibitors; total protein incubated with AOC1-specific antibodies overnight at 4 °C, protein G agarose beads; eluate digested with trypsin, LC-MS/MS; only the target purified
[2] = target: T1, recombinant human AOC1 protein (diamine oxidase, DAO) (human); assay: as above; remark: listed apart in the source

| Molecule | binding [1] | binding [2] |
| --- | --- | --- |
| LRP5 (from UniProt Q91VN0 31-1614) (receptor) | binds |  |
| Fbln1 (Fibulin-1) (protein, UniProt Q08879 30-705) DISMEACCTDGNQMANQHRDCSLPYTSESKECRMVQEQCCHNQLEELHCATGINLASEPEGCASLHSYNSSLETIFIKRCCHCCMLGKASLARDQTCEPIVMISYQCGLVFRACCVKARENSDFVQGNGADLQDPAKIPDEEDQEDPYLNDRCRGGGPCKQQCRDTGDEVICSCFVGYQLQSDGVSCEDINECITGSHNCRLGESCINTVGSFRCQRDSSCGTGYELTEDNNCKDIDECETGIHNCPPDFICQNTLGSFRCRPKLQCKSGFIQDALGNCIDINECLSISAPCPVGQTCINTEGSYTCQKNVPNCGRGYHLNEEGTRCVDVDECSPPAEPCGKGHHCLNSPGSFRCECKAGFYFDGISRTCVDINECQRYPGRLCGHKCENTPGSFHCSCSAGFRLSVDGRSCEDVNECLNSPCSQECANVYGSYQCYCRRGYQLSDVDGVTCEDIDECALPTGGHICSYRCINIPGSFQCSCPSSGYRLAPNGRNCQDIDECVTGIHNCSINETCFNIQGSFRCLSFECPENYRRSADTFRQEKTDTVRCIKSCRPNDEACVRDPVHTVSHTVISLPTFREFTRPEEIIFLRAVTPLYPANQADIIFDITEGNLRDSFDIIKRYEDGMTVGVVRQVRPIVGPFYAVLKLEMNYVLGGVVSHRNVVNVHIFVSEYWF |  | binds |

Results, then the molecule that gave them:

| binding [1] | binding [2] | Molecule |
| --- | --- | --- |
|  | binds | PTK7 (receptor, UniProt Q8BKG3 23-1062) AIVFIKEPSSQDALQGRRALLRCEVEAPDPVHVYWLLNGVPVQDTERRFAQGSSLSFAAVDRLQDSGAFQCVARDNVTGEEVRSTNASFNIKWIEAGPVVLKHPASEAEIQPQTQVTLRCHIDGHPRPTYQWFRDGTPLSDDQSTHTVSSRERNLTLRPASPEHSGLYSCCAHNAFGQACSSQNFTLSVADESFARVVLAPQDVVVARNEEAMFHCQFSAQPPPSLQWVFEDETPITNRSRPPHLRRAVVFANGSLLLTQVRPRNAGVYRCIGQGQRGPPIVLEATLHLAEIEDMLPFEPRVFIAGDEERVTCPAPQGLPTPSVWWEHAGVPLPAHGRVHQKGLELVFVTIAESDTGVYTCHASNLAGQRRQDVNITVATVPTWLRKPQDSQLEEGKPGYLHCLTQATPKPTVIWYRNQMLISEDSRFEVSKNGTLRINSVEVYDGTLYRCVSSTPAGSIEAQARVQVLEKLKFTPPPQPQQCMEFDKEATVPCSATGREKPTVKWVRADGSSLPEWVTDNAGTLHFARVTRDDAGNYTCIASNEPQGQIRAHVQLTVAVFITFKVEPERTTVYQGHTALLRCEAQGDPKPLIQWKGKDRILDPTKLGPRMHIFQNGSLVIHDVAPEDSGSYTCIAGNSCNIRHTEAPLLVVDKPVMEDSEGPGSPPPYKMIQTIGLSVGAAVAYIIAVLGLMFYCKKRCKAKRLQKQPEGEEPEMECLNGGPLQNGQPSAEIQEEVALTSLGSGPPATNKRHSAGDRMHFPRASLQPITTLGKSEFGEVFLAKAQGVEEGATETLVLVKSLQSRDEQQQLDFRREVEMFGKLNHANVVRLLGLCREAEPHYMVLEYVDLGDLKQFLRISKNKDEKLKSQPLSTKQKVALCSQVALGMEHLSNNRFVHKDLAARNCLISAQRQVKVSALGLSKDVYNSEYYHFRQAWVPLRWMSPEAVLEGDFSTKSDVWAFGVLMWEVFTHGEMPHGGQADDEVLADLQAGKARLPQPEGCPSKLYRLMQRCWAPNPKDRPSFSEIASTLGDSPADSKQ |
|  | binds | Fbln2 (protein, UniProt P37889 27-1221) VPWQDCTGAECPLLENCIEEALEPGACCATCVQQGCACEGYQYYDCVQGGFVDGRVPAGQSYFVDFGSTECSCPPGGGKISCQFMLCPELPPNCIEAVVVADSCPQCGQVGCVHSGRKYAAGHTVHLSSCRACHCPDAGGELICYQLPGCHGNFSDAEEGDSERQYEDPYSYDQEVAEAEATTAIVNEVQAGAEGPPAALGGGNLPPSSIRVTPWPVALPRPTAAAALGPPAPVQAKARRVTLDTEEDEEEEEEETLVTEPPTAGSPGRLDSLPTRSPARPGFPVQEKEAEAKAGPEENLIPDAQVTPRSVMQEGAAPLPRSGLAALSPSLATDSSSEDPVKPSDHPTLSTLPPDRAQVSPSPETPEEIPQHPQLLPRFRAEEDIDPNSVHSVPRGDLDGSTKDLIETCCAAGQQWAIDNDECQEIPENGAQSDICRIAQRQCCISYLKEKSCVAGVMGAKEGETCGAEDNDTCGVSLYKQCCDCCGLGLRVRAEGQSCESNPNLGYPCNHVMLSCCEGEEPLIVPEVRRPPEPEAAPRRVSEMEMASREALSLGTEAELPNSLPGDDQDECLMLPGELCQHLCINTVGSYRCACFPGFELQGDGRTCRPDRGAPQLDTARESAPRSESAQVSPNTIPLPVPQPNTCKDNGPCRQVCRVVGDTAMCSCFPGYAIMADGVSCEDQDECLMGTHDCSWKQFCVNTLGSFYCVNHTVLCAEGYILNAHRKCVDINECVTDLHTCTRAEHCVNTPGSFQCYKALTCEPGYVLTDGECTDVDECVTGTHNCQAGFSCQNTKGSFYCQARQRCMDGFLQDPEGNCVDINECTSLLEPCRSGFSCINTVGSYTCQRNPLVCGRGYHANEEGSECVDVNECETGVHRCGEGQLCYNLPGSYRCDCKPGFQRDAFGRTCIDVNECWVSPGRLCQHTCENTPGSYRCSCAAGFLLAADGKHCEDVNECETRRCSQECANIYGSYQCYCRQGYQLAEDGHTCTDIDECAQGAGILCTFRCVNVPGSYQCACPEQGYTMMANGRSCKDLDECALGTHNCSEAETCHNIQGSFRCLRFDCPPNYVRVSETKCERTTCQDITECQTSPARITHYQLNFQTGLLVPAHIFRIGPAPAFAGDTISLTITKGNEEGYFVTRRLNAYTGVVSLQRSVLEPRDFALDVEMKLWRQGSVTTFLAKMYIFFTTFAP |

Like-named read-outs stand apart in the source and are kept apart here. These are yes or no findings as the source states them, for the method shown. In cells and extracts the contact can be indirect. A yes stands for co-enrichment or nearness to the bait. Other partners may have been found.
